Results published in paper PMC9701223.
No constants are given. Whether binding was seen depends on the method and setting. For some assays here: Binding seen in cells or lysates may run through a third protein. Some entries that bind do so weakly or less than the wild type. For some assays here: Where a sequence is shown, tags or fusion partners need not be part of it.

Chains of the proteins cited; added tags and fusions are not shown. Lines headed by an entry give the natural chain unless they say otherwise; changes in a name come on top.
UniProt Q9VQ93: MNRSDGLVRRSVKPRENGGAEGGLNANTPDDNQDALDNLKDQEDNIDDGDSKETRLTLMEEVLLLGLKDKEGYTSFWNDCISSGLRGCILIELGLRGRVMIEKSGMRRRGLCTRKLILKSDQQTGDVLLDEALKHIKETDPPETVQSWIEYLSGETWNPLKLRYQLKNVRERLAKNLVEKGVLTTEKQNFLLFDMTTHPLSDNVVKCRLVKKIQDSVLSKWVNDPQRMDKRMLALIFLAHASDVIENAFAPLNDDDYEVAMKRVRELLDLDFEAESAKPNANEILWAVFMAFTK

Key:
[1] = target: T1, GST-Tctp (Drosophila Translationally controlled tumor protein) (Drosophila melanogaster) (UniProt Q9VGS2); experiment: pull-down; GST or GST-tagged protein (4 µg) on glutathione-Sepharose 4B beads, incubated with Drosophila S2 cell lysate, 4 °C, 2 h; wash 25 mM Tris-HCl pH 7.4, 150 mM NaCl, 1% NP-40, 1 mM EDTA; western blot; only the target purified
T1 sequence: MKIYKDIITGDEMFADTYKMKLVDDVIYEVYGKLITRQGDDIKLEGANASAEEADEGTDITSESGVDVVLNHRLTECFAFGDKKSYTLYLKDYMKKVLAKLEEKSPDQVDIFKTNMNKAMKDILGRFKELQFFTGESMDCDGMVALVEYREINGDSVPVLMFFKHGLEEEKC

[2] = target: dGOLPH3 bait (pEG202) for yeast two-hybrid (Drosophila melanogaster) (UniProt Q9VQ93); experiment: two-hybrid; B42/lexA system in yeast strain EGY48; dGOLPH3 bait in pEG202, preys in pJG4-5; lacZ reporter on X-GAL plates with galactose, quantified by β-galactosidase assay
[3] = target: dGOLPH3-RFP (RFP-tagged dGOLPH3) (Drosophila melanogaster) (UniProt Q9VQ93); experiment: co-IP; RFP trap-A (ChromoTek) on lysates of pupae expressing dGOLPH3-RFP; Buffer A, 4 °C
[4] = target: T2, Tctp-HA (HA-tagged Tctp) (Drosophila melanogaster) (UniProt Q9VGS2); experiment: co-IP; anti-HA agarose beads on lysates of pupae overexpressing Tctp-HA, with or without knockdown of dGOLPH3 (RNAi); Buffer A, 4 °C; eluted with 200 mM glycine pH 2.0
T2 sequence: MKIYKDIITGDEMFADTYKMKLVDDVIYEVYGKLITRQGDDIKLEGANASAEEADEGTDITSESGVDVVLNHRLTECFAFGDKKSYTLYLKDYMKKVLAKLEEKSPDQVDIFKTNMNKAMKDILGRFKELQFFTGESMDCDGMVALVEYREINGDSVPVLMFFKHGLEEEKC

[5] = target: GFP-dGOLPH3 (GFP-tagged dGOLPH3) (Drosophila melanogaster) (UniProt Q9VQ93); experiment: co-IP; GFP trap-A (ChromoTek) on lysates of pupae expressing GFP, GFP-dGOLPH3 or GFP-dGOLPH3 K167A-R170L; Buffer A (20 mM Tris-HCl pH 7.5, 100 mM NaCl, 5 mM MgCl2, 10% sucrose, 1 mM EDTA, 0.2% NP-40), 4 °C; blot with anti-Rheb and anti-GFP
[6] = target: GFP-dGOLPH3^K167A-R170L (Drosophila melanogaster) (UniProt Q9VQ93); experiment: as above

B1: Rheb (Ras homolog enriched in brain), endogenous in S2 cells (protein, UniProt Q9VND8 1-182)
chain: MPTKERHIAMMGYRSVGKSSLCIQFVEGQFVDSYDPTIENTFTKIERVKSQDYIVKLIDTAGQDEYSIFPVQYSMDYHGYVLVYSITSQKSFEVVKIIYEKLLDVMGKKYVPVVLVGNKIDLHQERTVSTEEGKKLAESWRAAFLETSAKQNESVGDIFHQLLILIENENGNPQEKSGCLVS
binding [1]: binds

B2: Lst8 prey (pJG4-5) for yeast two-hybrid (protein, UniProt Q9W328 1-313)
chain: MGDQQQLILATGGYDHTIKVWQAHTGNCIKTMRFVETSQVNALDRTPDKTRLAACGYQCIRLYDLESNCTAPVINFDGVQKNVTRLGFQEDGNWMFTAGEDHHVRIWDMIAAPPHCSRIFDCEAPVNAACLHPNQVEIAMGSQNGSVFLWDVKSERHERIVPEVDASIQDVAISPDGRYLAAANNKGNCYIWSLTSQDQKMSTLRPNRKIPAHSRYILRCKFSPDSRLLLTTSGDGTVCIWKTDDFSKWRELCIENYWVWDAAFSADSKWLFTASSDGIARLWKLQTKSSIRDYTGHTKAITALSFKDEIVGK
binding [2]: binds

B3: Rheb (Ras homolog enriched in brain), endogenous in pupae (protein, UniProt Q9VND8 1-182)
chain: MPTKERHIAMMGYRSVGKSSLCIQFVEGQFVDSYDPTIENTFTKIERVKSQDYIVKLIDTAGQDEYSIFPVQYSMDYHGYVLVYSITSQKSFEVVKIIYEKLLDVMGKKYVPVVLVGNKIDLHQERTVSTEEGKKLAESWRAAFLETSAKQNESVGDIFHQLLILIENENGNPQEKSGCLVS
binding [3]: binds
binding [4]: binds
binding [5]: binds
binding [6]: no binding

B4: Tctp prey (pJG4-5) for yeast two-hybrid (protein, UniProt Q9VGS2 1-172)
chain: MKIYKDIITGDEMFADTYKMKLVDDVIYEVYGKLITRQGDDIKLEGANASAEEADEGTDITSESGVDVVLNHRLTECFAFGDKKSYTLYLKDYMKKVLAKLEEKSPDQVDIFKTNMNKAMKDILGRFKELQFFTGESMDCDGMVALVEYREINGDSVPVLMFFKHGLEEEKC
binding [2]: binds

B5: 14-3-3ζ prey (pJG4-5) for yeast two-hybrid (protein, UniProt P29310 1-248)
chain: MSTVDKEELVQKAKLAEQSERYDDMAQAMKSVTETGVELSNEERNLLSVAYKNVVGARRSSWRVISSIEQKTEASARKQQLAREYRERVEKELREICYEVLGLLDKYLIPKASNPESKVFYLKMKGDYYRYLAEVATGDARNTVVDDSQTAYQDAFDISKGKMQPTHPIRLGLALNFSVFYYEILNSPDKACQLAKQAFDDAIAELDTLNEDSYKDSTLIMQLLRDNLTLWTSDTQGDEAEPQEGGDN
binding [2]: binds
